These are yes or no findings as the source states them, for the method shown. Some binding calls cover weakened binding; strength is not graded here.
What was measured:
[1] = target: human (Homo sapiens) ROR2, full length, on cells (human) (UniProt Q01974); assay: flow cytometry on HeLa cells
[2] = target: human (Homo sapiens) ROR2, full length, on cells (human) (UniProt Q01974); assay: flow cytometry on Calu-1 cells with and without ablation of ROR2

Chains of the proteins cited; added tags and fusions are not shown. Lines headed by an entry give the natural chain unless they say otherwise; changes in a name come on top.
UniProt Q01974: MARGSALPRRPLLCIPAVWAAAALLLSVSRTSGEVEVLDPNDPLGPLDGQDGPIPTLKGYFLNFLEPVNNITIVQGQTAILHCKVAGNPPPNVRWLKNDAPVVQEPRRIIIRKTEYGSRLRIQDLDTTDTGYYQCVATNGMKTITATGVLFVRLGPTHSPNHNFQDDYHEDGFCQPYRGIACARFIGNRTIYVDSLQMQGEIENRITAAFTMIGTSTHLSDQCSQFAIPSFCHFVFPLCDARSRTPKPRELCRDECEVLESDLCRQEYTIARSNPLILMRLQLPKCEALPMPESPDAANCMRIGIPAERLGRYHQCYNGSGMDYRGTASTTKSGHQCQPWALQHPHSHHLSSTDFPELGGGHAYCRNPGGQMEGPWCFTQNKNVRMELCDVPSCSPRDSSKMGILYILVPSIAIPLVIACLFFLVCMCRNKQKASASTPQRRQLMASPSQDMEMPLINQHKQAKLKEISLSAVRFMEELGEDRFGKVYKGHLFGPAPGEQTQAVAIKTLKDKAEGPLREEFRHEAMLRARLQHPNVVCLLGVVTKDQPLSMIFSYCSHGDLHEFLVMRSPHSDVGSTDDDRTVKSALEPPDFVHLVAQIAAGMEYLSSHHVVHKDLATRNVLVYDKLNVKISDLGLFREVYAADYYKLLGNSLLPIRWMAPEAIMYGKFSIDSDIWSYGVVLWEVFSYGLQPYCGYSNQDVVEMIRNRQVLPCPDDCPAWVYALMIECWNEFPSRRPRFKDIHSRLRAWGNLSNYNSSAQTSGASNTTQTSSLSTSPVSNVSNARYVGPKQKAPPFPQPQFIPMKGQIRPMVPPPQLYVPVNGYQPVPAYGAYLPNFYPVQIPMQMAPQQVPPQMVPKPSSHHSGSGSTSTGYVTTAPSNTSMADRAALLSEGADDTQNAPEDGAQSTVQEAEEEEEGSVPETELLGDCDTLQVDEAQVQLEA

B1: chIgG1-ROR2-A (antibody, V domains shown)
VH: QSVEESGGRLVTPGTPLTLTCTVSGFSLSSYSMSWVRQAPGKGLEWIGVIYVNSKTWYANWAKGRFTISKTSTTVDLKITSPTTEDTATYFCARGDAGYTTNSWLWGPGTLVTVSS
VL: AFELTQTPASVSEPVGGTVTIKCQASESIDNYCSWYQQKPGQPPKLLIYQAFKLASGVPSRFRGSGSGTQFTLTISDLESDDAATYYCQSYSGISTTAFGGGTEVVVK
binding [1]: binds | binding [2]: binds
